Assay results taken from patent US20210183469A9 (priority 2018, published 2021).

What was measured:
[1] = peptide made by a vendor (Fmoc solid-phase peptide synthesis; cellulose support (SPOT array)); details: whole synthesis, MALDI-ToF, scale of the general procedure 80 μg (SPOT array)
[2] = ratio between cytotoxic effect and antibacterial effect

Row | Substance | final ms purity [1] | selectivity index [2]
1 | PEPTIDE1{R.Q.Y.M.R.Q.I.E.Q.A.L.R.Y.G.Y.R.I.S.R.R.[am]}$$$$V2.0 | >95% | 
2 | RQYMRQIEQALRYGYRISRR-NH2 [Guavanin 2] |  | 23.93
3 | RYGYGGYGGGRYGGGYGSGR-NH2 [Fragment 2] |  | 0.5

For part of these data: Strings that start with PEPTIDE1 are HELM notation: dots part the residues, brackets hold end groups and non-standard residues. No end group written: not given here.
